One test addresses T1, GST-tagged CXXC5 (UniProt Q7LFL8).
T1 sequence: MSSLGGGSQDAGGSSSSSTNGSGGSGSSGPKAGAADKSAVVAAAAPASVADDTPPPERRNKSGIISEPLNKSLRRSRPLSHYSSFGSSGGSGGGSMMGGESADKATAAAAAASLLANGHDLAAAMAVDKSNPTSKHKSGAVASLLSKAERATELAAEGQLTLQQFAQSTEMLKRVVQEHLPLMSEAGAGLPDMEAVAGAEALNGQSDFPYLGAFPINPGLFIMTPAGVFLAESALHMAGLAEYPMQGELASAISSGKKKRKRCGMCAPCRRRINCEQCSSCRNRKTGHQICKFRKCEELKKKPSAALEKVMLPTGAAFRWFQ
Put plainly: pull-down; about 5 ug GST-CXXC5 on glutathione-Sepharose beads with 5 to 8 ul in vitro transcribed/translated product, 75 mM NaCl, 50 mM Hepes pH 7.9, 2 h at 4 °C, detection by Western blotting; only the target purified.

Amino acid sequences for entries named in this document (tags omitted).
UniProt Q13547: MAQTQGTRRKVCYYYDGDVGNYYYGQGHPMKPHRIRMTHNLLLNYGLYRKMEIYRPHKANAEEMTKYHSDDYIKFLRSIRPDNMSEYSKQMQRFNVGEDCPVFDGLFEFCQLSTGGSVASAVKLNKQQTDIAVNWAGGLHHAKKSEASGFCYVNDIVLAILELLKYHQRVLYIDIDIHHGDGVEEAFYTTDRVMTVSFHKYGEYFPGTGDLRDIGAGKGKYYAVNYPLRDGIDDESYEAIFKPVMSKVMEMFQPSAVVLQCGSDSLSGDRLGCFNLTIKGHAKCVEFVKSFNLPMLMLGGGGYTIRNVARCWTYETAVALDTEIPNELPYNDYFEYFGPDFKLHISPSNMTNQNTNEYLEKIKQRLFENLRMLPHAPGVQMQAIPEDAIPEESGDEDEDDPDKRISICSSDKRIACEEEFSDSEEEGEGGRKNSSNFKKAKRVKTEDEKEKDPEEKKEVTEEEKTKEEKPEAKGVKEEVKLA
UniProt Q92769: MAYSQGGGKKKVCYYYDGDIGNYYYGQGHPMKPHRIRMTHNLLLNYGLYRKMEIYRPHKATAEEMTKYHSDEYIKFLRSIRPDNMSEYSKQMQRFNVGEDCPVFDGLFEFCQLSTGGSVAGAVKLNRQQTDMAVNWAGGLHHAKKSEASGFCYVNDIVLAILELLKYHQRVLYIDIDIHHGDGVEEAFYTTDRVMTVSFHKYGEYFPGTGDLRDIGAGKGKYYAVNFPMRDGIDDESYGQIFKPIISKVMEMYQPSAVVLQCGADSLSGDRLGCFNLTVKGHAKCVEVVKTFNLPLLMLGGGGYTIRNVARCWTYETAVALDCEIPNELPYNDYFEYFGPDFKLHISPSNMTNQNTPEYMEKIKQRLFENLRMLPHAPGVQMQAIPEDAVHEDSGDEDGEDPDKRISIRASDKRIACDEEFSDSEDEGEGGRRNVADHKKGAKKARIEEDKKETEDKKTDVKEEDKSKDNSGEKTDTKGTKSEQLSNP
UniProt Q16531: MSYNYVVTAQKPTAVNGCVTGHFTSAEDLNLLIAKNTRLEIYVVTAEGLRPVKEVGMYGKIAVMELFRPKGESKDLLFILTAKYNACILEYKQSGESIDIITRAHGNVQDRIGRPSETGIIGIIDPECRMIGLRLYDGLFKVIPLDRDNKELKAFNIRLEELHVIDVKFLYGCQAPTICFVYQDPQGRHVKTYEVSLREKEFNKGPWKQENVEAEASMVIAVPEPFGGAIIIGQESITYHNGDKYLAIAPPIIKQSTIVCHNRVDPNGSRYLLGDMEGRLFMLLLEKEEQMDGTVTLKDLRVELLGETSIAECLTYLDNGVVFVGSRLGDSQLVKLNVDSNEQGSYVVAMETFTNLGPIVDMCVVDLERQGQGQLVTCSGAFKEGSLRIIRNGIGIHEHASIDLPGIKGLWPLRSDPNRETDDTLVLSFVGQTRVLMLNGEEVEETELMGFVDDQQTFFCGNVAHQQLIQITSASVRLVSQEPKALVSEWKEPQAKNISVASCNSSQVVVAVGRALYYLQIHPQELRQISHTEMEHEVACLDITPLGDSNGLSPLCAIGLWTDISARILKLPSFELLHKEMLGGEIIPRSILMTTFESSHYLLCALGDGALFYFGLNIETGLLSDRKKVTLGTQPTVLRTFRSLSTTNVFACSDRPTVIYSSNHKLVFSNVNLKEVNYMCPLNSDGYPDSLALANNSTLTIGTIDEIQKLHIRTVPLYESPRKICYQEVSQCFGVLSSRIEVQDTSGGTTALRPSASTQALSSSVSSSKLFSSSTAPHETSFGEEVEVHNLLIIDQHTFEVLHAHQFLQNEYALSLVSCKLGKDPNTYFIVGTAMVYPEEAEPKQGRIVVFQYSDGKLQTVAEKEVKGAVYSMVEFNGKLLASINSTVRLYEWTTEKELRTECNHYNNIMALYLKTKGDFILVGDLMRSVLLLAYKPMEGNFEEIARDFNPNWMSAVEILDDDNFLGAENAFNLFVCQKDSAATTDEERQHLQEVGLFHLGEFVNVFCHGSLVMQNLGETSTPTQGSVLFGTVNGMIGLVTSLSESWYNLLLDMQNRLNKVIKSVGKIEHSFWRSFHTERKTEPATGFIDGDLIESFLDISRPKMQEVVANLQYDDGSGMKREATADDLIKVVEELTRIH
UniProt O94776: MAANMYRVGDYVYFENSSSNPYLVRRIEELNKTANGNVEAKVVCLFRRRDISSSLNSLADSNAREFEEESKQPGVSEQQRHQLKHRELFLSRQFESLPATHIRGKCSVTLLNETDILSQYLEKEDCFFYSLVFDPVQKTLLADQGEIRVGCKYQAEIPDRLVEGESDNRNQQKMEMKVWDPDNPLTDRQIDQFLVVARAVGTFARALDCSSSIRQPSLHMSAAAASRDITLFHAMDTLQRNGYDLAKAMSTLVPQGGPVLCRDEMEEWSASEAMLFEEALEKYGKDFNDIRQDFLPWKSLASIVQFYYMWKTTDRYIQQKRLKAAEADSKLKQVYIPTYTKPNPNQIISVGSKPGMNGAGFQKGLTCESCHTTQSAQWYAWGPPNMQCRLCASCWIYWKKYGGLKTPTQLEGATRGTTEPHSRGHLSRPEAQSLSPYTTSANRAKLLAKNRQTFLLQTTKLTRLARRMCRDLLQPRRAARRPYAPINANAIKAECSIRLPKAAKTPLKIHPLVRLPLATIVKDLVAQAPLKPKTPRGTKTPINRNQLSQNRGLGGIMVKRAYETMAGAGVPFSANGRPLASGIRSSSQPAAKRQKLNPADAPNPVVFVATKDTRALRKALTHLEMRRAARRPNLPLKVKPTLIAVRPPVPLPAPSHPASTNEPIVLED
UniProt Q13620: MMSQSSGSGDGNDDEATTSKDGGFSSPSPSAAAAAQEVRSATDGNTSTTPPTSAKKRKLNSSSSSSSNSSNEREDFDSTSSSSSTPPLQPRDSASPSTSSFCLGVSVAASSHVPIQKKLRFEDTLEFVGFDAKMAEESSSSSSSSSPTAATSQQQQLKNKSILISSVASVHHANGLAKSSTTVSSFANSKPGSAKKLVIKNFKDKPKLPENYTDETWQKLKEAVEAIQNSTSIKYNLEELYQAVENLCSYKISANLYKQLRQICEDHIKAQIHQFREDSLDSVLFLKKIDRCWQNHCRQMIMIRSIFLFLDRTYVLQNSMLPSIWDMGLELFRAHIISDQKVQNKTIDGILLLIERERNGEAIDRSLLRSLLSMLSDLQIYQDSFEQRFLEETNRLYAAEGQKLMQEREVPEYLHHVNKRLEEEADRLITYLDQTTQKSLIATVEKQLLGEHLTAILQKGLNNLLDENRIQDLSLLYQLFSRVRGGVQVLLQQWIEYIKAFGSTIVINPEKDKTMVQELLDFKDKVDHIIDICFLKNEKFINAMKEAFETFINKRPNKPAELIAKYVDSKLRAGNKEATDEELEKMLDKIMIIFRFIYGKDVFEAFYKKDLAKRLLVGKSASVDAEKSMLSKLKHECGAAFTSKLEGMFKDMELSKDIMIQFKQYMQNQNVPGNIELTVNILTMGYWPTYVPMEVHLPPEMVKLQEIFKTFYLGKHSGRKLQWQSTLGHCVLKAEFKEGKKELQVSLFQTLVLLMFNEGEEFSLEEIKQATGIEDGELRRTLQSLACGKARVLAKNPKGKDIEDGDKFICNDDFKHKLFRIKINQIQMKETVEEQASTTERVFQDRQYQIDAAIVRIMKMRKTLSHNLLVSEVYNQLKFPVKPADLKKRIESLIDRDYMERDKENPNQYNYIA
UniProt Q13330: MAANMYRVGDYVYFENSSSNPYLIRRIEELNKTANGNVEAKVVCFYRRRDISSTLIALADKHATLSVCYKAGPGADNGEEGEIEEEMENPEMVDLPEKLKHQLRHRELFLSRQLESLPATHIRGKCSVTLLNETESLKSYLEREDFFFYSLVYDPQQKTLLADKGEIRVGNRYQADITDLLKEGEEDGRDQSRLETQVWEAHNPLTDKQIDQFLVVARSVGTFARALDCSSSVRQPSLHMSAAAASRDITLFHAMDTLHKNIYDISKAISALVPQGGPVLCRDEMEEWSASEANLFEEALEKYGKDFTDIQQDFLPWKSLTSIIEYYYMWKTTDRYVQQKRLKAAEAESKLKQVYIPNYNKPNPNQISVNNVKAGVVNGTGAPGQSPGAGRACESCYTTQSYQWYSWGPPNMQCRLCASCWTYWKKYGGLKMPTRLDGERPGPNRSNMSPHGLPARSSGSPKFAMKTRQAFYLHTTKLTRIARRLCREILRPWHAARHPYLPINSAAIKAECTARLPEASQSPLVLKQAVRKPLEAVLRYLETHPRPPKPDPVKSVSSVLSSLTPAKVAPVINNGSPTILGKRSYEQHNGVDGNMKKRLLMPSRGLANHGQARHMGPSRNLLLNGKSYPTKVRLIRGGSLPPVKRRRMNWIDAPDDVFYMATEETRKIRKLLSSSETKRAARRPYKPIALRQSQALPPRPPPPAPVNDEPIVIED

Test [1] has as its target T2, CXXC5 (human (endogenous in MCF-7 and MDA-MB-231)) (UniProt Q7LFL8).
T2 sequence: T1 sequence
Put plainly: co-IP; endogenous proteins, whole cell lysates of MCF-7 or MDA-MB-231 cells in NETN buffer (150 mM NaCl, 2 mM EDTA, 50 mM Tris-HCl pH 8.0, 0.2% Nonidet P-40), 4 °C, protein G magnetic beads, immunoblotting; both directions.

Test [2] concerns the target T2, CXXC5 (human (endogenous in MCF-7 and MDA-MB-231)). Put plainly: SEC; FPLC of MCF-7 nuclear extract on a Superose 6 column (20 mM Hepes pH 8.0, 10% glycerol, 0.1 mM EDTA, 300 mM NaCl), fractions analysed by Western blotting.
Test [3] has as its target HDAC1 (human (endogenous in MCF-7 and MDA-MB-231)) (UniProt Q13547). Put plainly: co-IP; endogenous proteins, whole cell lysates of MCF-7 or MDA-MB-231 cells in NETN buffer (150 mM NaCl, 2 mM EDTA, 50 mM Tris-HCl pH 8.0, 0.2% Nonidet P-40), 4 °C, protein G magnetic beads, immunoblotting; both directions.
Test [4] deals with HDAC2 (human (endogenous in MCF-7 and MDA-MB-231)) (UniProt Q92769). Described as above.
For test [5], the target named is DDB1 (human (endogenous in MCF-7 and MDA-MB-231)) (UniProt Q16531). Described as above.
The target of test [6] is MTA2 (human (endogenous in MCF-7 and MDA-MB-231)) (UniProt O94776). The description is as above.
For test [7], the target named is CUL4B (human (endogenous in MCF-7 and MDA-MB-231)) (UniProt Q13620). The description is as above.
The target of test [8] is MTA1 (human (endogenous in MCF-7 and MDA-MB-231)) (UniProt Q13330). Described as above.

No constants are given. Whether binding was seen depends on the method and setting. For some of these results: In cells and extracts the contact can be indirect. Some binding calls cover weakened binding; strength is not graded here. For some of these results: Tags and fused reporters may be left off the sequences shown.

With “CUL4B (in vitro transcribed/translated) (from UniProt Q13620 1-913)”, the binding entry with GST-tagged CXXC5 is given as “binds”.

Consider “DDB1 (in vitro transcribed/translated) (from UniProt Q16531 1-1140)”, for which, in the test with GST-tagged CXXC5, the binding entry was “binds”.

In the case of HDAC2 (from UniProt Q92769 1-488), the binding entry in [1] and in test [2] was “binds” in each case.

For DDB1 (from UniProt Q16531 1-1140), the binding result in test [1] and in [2] was “binds” in each case.

Turning to CUL4B (from UniProt Q13620 1-913), the binding entry in [1] and in test [2] was “binds” throughout.

For the molecule HDAC1 (from UniProt Q13547 1-482), the binding entry in test [1] and in [2] was “binds” in each case.

B1: CXXC5 (protein, UniProt Q7LFL8 1-322)
chain: T1 sequence
Turning to B1, the binding entry in test [3], in test [4], in [5], in [6], in [7] and in test [8] was “binds” in each case.

These data come from article PMC9860500.
